The test in a line: qHTS Assay to Find Inhibitors of Chronic Active B-Cell Receptor Signaling. The note with it: ABC-DLBCL IkBa-CBG/CBR reporter, luminescence ratio (green luciferase fused to IkBa over red control in TMD8 lymphoma cells), 4 h. An outline of the steps: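 Compounds up to 46 uM were incubated four hours with TMD8 cells whose green CBG68 luciferase is fused to IkappaBalpha; red CBR luminescence normalised the signal, and concentration-effect curves were fitted to fusion, red and ratio data.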
For orientation: In qHTS, concentration-response curves come from the screen itself.

Where [1] appears, read: measured here: CBR red luminescence, cell number.

Structures are written as SMILES. Some of the results follow. These are further read-outs of the screen, such as a control signal, another cell line or another target. No call is given for them. The list favours compounds with an active or inconclusive main result. Potencies come from curve fits of mixed quality, noted in brackets.

As usually defined, the AC50 is the midpoint of the concentration-response curve, whichever way the signal moves.

Turning to `O=C(Nc1cccnc1)c1c(F)cccc1F`, under setting [1], the AC50 is 18.4 µM [rising, partial curve, poor fit].

Consider `CCCCOc1cccc(C(=O)Nc2ccc(N3CCN(CC)CC3)cc2)c1`, for which, under setting [1], the AC50 was 0.259 µM [rising, full curve, poor fit].

Turning to `O=[N+]([O-])c1ccc(-n2nnnc2-c2ccccc2)c([N+](=O)[O-])c1`, the AC50 under setting [1] was 16.4 µM [falling, single point] and the concentration at half-maximal activity (AC50) (measured here: IkBa-CBG green luminescence) is 20.6 µM [rising, partial curve, poor fit].

For `Cc1cccc(OCC(=O)NCCNC(=O)c2ccccn2)c1`, the AC50 under setting [1] is 0.158 µM [falling, partial curve, poor fit].

`CCCCNC(=S)NCC(c1ccccc1)c1c[nH]c2ccccc12` (centres undefined): under setting [1], the concentration at half-maximal activity (AC50) was 35.5 µM [falling, single point].

For `CCC(O)(CC)C(=O)N/N=C/c1cc(Br)cc(Br)c1O`, the AC50 under setting [1] is 35.5 µM [rising, single point].

For `Clc1ccccc1CSc1cc2c(nn1)-c1ccccc1CC2`, the concentration at half-maximal activity (AC50) under setting [1] was 5.62 µM [rising, partial curve, poor fit].

For the molecule `Cc1cnc(C(=O)Nc2ccc(OC(F)(F)F)cc2)cn1`, the concentration at half-maximal activity (AC50) under setting [1] is 0.0891 µM [rising, full curve, poor fit].

Consider `CCOC(=O)c1c(NC(=O)C(NCCN(C)C)c2ccccc2)sc2c1CCCC2` (centres undefined), for which, under setting [1], the AC50 was 3.98 µM [falling, partial curve].

Consider `CCc1ccc(NC(=O)c2cc(C(C)C)on2)cc1`, for which, under setting [1], the AC50 was 3.55 µM [falling, full curve].

As to `COc1ccc(/C(C)=N/NC(=O)c2ccc(N(C)C)cc2)cc1`, the AC50 under setting [1] is 3.55 µM [falling, single point].

Take `COc1ccc2nc(NC(=O)c3cccc(OCc4c(C)noc4C)c3)sc2c1`: the concentration at half-maximal activity (AC50) under setting [1] is 3.98 µM [falling, partial curve].

Regarding `N#Cc1c(-c2ccco2)nc(SCC(=O)Nc2ccc(S(N)(=O)=O)cc2)[nH]c1=O`, under setting [1], the half-maximal activity concentration (AC50) is 18.4 µM [falling, single point].

For the molecule `CCNC(=S)N1CCN(CCN2C(=O)c3cccc4cccc(c34)C2=O)CC1`, the AC50 under setting [1] is 12.6 µM [rising, single point].

With `CC1(C)OC(=O)N(NCc2ccccc2)C1(C)O` (centres undefined), under setting [1], the concentration at half-maximal activity (AC50) is 0.355 µM [rising, partial curve, poor fit].

For the molecule `CCN1/C(=C/c2sc(-c3ccccc3C)c[n+]2C)Sc2ccccc21`, the AC50 under setting [1] is 1.12 µM [rising, partial curve, poor fit].

Consider `CCc1c(C)sc(NC(=O)CC#N)c1C#N`, for which the AC50 under setting [1] was 32.6 µM [rising, single point].

For the molecule `COC(=O)c1c(NC(=O)Cc2ccc(OC)c(S(=O)(=O)N3CCOCC3)c2)sc(C)c1C`, the AC50 under setting [1] is 8.2 µM [falling, partial curve].

For the origin of these results see PubChem BioAssay AID493014 (National Center for Advancing Translational Sciences (NCATS), 2011).
